Data from the supplement of paper PMC4604168 (melanoma cell lines).
Some of the results follow. Repeats are few or missing, and single values can be far off.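 The apoptosis fraction was the count of cleaved-PARP antibody-stained nuclei relative to all DNA-stained nuclei, imaged in 1,536-well plates. Screening doses were set so most cells survived, and baseline and induced cleaved-PARP levels vary greatly across cell lines.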

Each compound was assayed on COLO792 (assay: cleaved PARP positive nuclei fraction relative to DMSO control; melanoma cells; higher = more apoptosis). Settings: library dose: low library concentration; 72 h.

Row | SMILES | cleaved PARP positive nuclei fraction
1 | Cc1ccc(Nc2nccc(N(C)c3ccc4c(C)n(C)nc4c3)n2)cc1S(N)(=O)=O [Pazopanib] + N#Cc1c(O)c2c(-c3ccc(-c4ccccc4O)cc3)csc2[nH]c1=O [A769662] (first compound 0.4 µM, partner dose 2 µM) | 204%
2 | N#CC[C@H](C1CCCC1)n1cc(-c2ncnc3[nH]ccc23)cn1 [ruxolitinib] + COc1cc2ncnc(Nc3ccc(Oc4ccccc4)cc3)c2cc1OC [SrcI1] (first compound 1 µM, partner dose 2 µM) | 47.4%
3 | O=C(Nc1cc(C(F)(F)F)cc(C(F)(F)F)c1)c1cc(Cl)ccc1O + CCN(CC)CCCCNc1ncc2cc(-c3cc(OC)cc(OC)c3)c(NC(=O)NC(C)(C)C)nc2n1 [PD173074] (first compound 0.016 µM, partner dose 0.1 µM) | 135%
4 | CCCCCCCCCCCCCCCCCCOP(=O)([O-])OC1CC[N+](C)(C)CC1 [Perifosine] + COc1ccc2c(c1)CCC1C2CCC2(C)C(NCCCCCCN3C(=O)C=CC3=O)CCC12 [U73122] (first compound 0.4 µM, partner dose 0.4 µM) | 107%
5 | O=c1[nH]nc(Sc2ncc([N+](=O)[O-])s2)n1-c1ccc2c(c1)OCCO2 + N#Cc1c(O)c2c(-c3ccc(-c4ccccc4O)cc3)csc2[nH]c1=O [A769662] (first compound 0.2 µM, partner dose 2 µM) | 76.6%
6 | O=c1[nH]nc(Sc2ncc([N+](=O)[O-])s2)n1-c1ccc2c(c1)OCCO2 + COc1ccc2c(c1)CCC1C2CCC2(C)C(NCCCCCCN3C(=O)C=CC3=O)CCC12 [U73122] (first compound 0.2 µM, partner dose 0.4 µM) | 82.3%
7 | N#CC[C@H](C1CCCC1)n1cc(-c2ncnc3[nH]ccc23)cn1 [ruxolitinib] + O=C(Nc1ccccc1)c1cc([N+](=O)[O-])ccc1Cl [GW9662] (first compound 1 µM, partner dose 2 µM) | 134%
8 | O=C(/C=C/c1cccnc1)NCCCCC1CCN(C(=O)c2ccccc2)CC1 + O=c1cc(-c2cccc3c2Sc2ccccc2S3)oc(N2CCOCC2)c1 [KU55933] (first compound 0.01 µM, partner dose 1 µM) | 227%
9 | CCCCCCCCCCCCCCCCCCOP(=O)([O-])OC1CC[N+](C)(C)CC1 [Perifosine] + Cc1cc([N+](=O)[O-])ccc1NS(=O)(=O)c1cc(Cl)ccc1Cl [FH535] (first compound 0.4 µM, partner dose 1 µM) | 42.3%
10 | N#CC[C@H](C1CCCC1)n1cc(-c2ncnc3[nH]ccc23)cn1 [ruxolitinib] + O=S(=O)(c1ccccc1)N(CC(F)(F)F)c1ccc(C(O)(C(F)(F)F)C(F)(F)F)cc1 [T0901317] (first compound 1 µM, partner dose 1.4 µM) | 82.4%
11 | Cc1cn(-c2cc(NC(=O)c3ccc(C)c(Nc4nccc(-c5cccnc5)n4)c3)cc(C(F)(F)F)c2)cn1 [nilotinib] + COC(=O)c1sccc1S(=O)(=O)Nc1ccc(Nc2ccccc2)cc1OC [GSK0660] (first compound 0.2 µM, partner dose 1 µM) | 54.2%
12 | Cc1ccc(Nc2nccc(N(C)c3ccc4c(C)n(C)nc4c3)n2)cc1S(N)(=O)=O [Pazopanib] + O=C(O)C(=O)Nc1sc2c(c1C(=O)O)CCNC2 [TCS401] (first compound 0.4 µM, partner dose 1.66667 µM) | 55.9%
13 | N#CC[C@H](C1CCCC1)n1cc(-c2ncnc3[nH]ccc23)cn1 [ruxolitinib] + COc1ccc(COc2ccc(Cc3cnc(N)nc3N)cc2OC)cc1 [GW2580] (first compound 1 µM, partner dose 1 µM) | 46.1%
14 | Cc1ccc(Nc2nccc(N(C)c3ccc4c(C)n(C)nc4c3)n2)cc1S(N)(=O)=O [Pazopanib] + CCc1ccc(CCOc2ccc(CC3SC(=O)NC3=O)cc2)nc1 [pioglitazone] (first compound 0.4 µM, partner dose 2 µM) | 111%
15 | Cc1cc(Nc2cc(N3CCN(C)CC3)nc(Sc3ccc(NC(=O)C4CC4)cc3)n2)n[nH]1 [Tozasertib] + c1cc(-c2cnn3cc(-c4ccc(OCCN5CCCCC5)cc4)cnc23)ccn1 [Dorsomorphin] (first compound 0.006 µM, partner dose 0.4 µM) | 38%

From entry 4 up to 5, as listed above:
Row | SMILES | cleaved PARP positive nuclei fraction
4 | CCCCCCCCCCCCCCCCCCOP(=O)([O-])OC1CC[N+](C)(C)CC1 [Perifosine] + COc1ccc2c(c1)CCC1C2CCC2(C)C(NCCCCCCN3C(=O)C=CC3=O)CCC12 [U73122] (first compound 0.4 µM, partner dose 0.4 µM) | 107%
5 | O=c1[nH]nc(Sc2ncc([N+](=O)[O-])s2)n1-c1ccc2c(c1)OCCO2 + N#Cc1c(O)c2c(-c3ccc(-c4ccccc4O)cc3)csc2[nH]c1=O [A769662] (first compound 0.2 µM, partner dose 2 µM) | 76.6%
